In the experiment the test system is BDF1 mice, P388 leukemia ip, median survival T/C. As to the kind of experiment: NCI In Vivo Anticancer Drug Screen. Data for tumor model P388 Leukemia (intraperitoneal) in B6D2F1 (BDF1) mice. As to conditions: T/C endpoint: median survival time, higher T/C = longer survival. A digest of the protocol:
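Mice carrying the transplantable tumour receive compound or vehicle. Survival is followed in each arm, and the treated measure is divided by the vehicle measure.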

Setting [1] is: dose: 100.0 mg/kg/injection, schedule: Q01DX009 (ip), vehicle: saline with Tween-80.
[2] abbreviates: dose: 400.0 mg/kg/injection, schedule: Q01DX009 (ip), vehicle: saline with Tween-80.
Where [3] appears, read: dose: 50.0 mg/kg/injection, schedule: Q01DX009 (ip), vehicle: saline with Tween-80.
The mark [4] stands for this setting: dose: 50.0 mg/kg/injection, schedule: Q04DX003 (ip), vehicle: saline with Tween-80.
[5] abbreviates: dose: 200.0 mg/kg/injection, schedule: Q01DX009 (ip), vehicle: saline with Tween-80.
[6] abbreviates: dose: 50.0 mg/kg/injection, schedule: Q04DX003 (ip), vehicle: saline.
Where [7] appears, read: dose: 150.0 mg/kg/injection, schedule: Q04DX003 (ip), vehicle: saline with Tween-80.

Each structure is given as a SMILES string. The list shows only some results of the screen, not a fair sample: it is rich in T/C values a quarter to a half above the control, in often repeated tests (any T/C) and in doses without a T/C. Other doses and runs of a compound stand elsewhere. T/C: endpoint of the treated group in % of that of the vehicle group. Some entries give survivors of the animals treated and no T/C: the source files T/C as zero there, which appears to mark a toxic dose or a test without result, not a measured value. Some doses without a T/C left all or most animals alive at the check, yet need not have been tolerated: survival well below the control is almost never listed, so the zero probably covers shortened survival too. Survivors were counted at the toxicity check, usually on the fifth day, unless a day is given; later deaths do not show. Schedules are NCI's codes, read here as Q, the interval in days (D) or hours (H), X, the number of doses. Where survival is the endpoint, this PubChem deposit counts one and a half times the control or more as active, and values a quarter to a half above the control carry no call in these data; other NCI protocols may use other cut-offs. Some doses were run more than once; the values are given in rising order. Some T/C values are followed by the survivors on the day toxicity was checked, most often the fifth; where none is given, no animal had died by that day.

Take `C[C@]12CC[C@H](OC(=O)Cc3ccc(N(CCCl)CCCl)cc3)CC1=CC[C@@H]1[C@@H]2CC[C@]2(C)C(=O)CC[C@@H]12`: the T/C under setting [1] was 125 % of control; the T/C (dose: 175.0 mg/kg/injection, schedule: Q04DX003 (ip), vehicle: saline with Tween-80) was 131 % of control; the T/C (dose: 264.0 mg/kg/injection, schedule: Q04DX003 (ip), vehicle: alcohol) was 140 % of control [5 of 6 alive]; the T/C under setting [2] is 125 % of control.
Consider `O=C(NC(Cc1ccccc1)C(=O)CCl)OCc1ccccc1` (configuration not stated), for which the T/C was 125 % of control (dose: 10.0 mg/kg/injection, schedule: Q01DX009 (ip), vehicle: saline with Tween-80); 131 and 140 % of control (dose: 11.0 mg/kg/injection, schedule: Q01DX009 (ip), vehicle: saline with Tween-80); 127 % of control (dose: 12.5 mg/kg/injection, schedule: Q01DX009 (ip), vehicle: saline with Tween-80); 127 [5 of 6 alive] and 142 % of control (dose: 16.5 mg/kg/injection, schedule: Q01DX009 (ip), vehicle: saline with Tween-80); 127 % of control (dose: 25.0 mg/kg/injection, schedule: Q01DX009 (ip), vehicle: saline with Tween-80). Under setting [3], the survivor count is reported as 6 of 6.
For `CS(=O)(=O)OCCN(CCOS(C)(=O)=O)c1ccc(N=O)cc1`, the survivor count is 6 of 6 (dose: 4.0 mg/kg/injection, schedule: Q01DX010 (ip), vehicle: saline); 4 of 6 (dose: 8.0 mg/kg/injection, schedule: Q01DX010 (ip), vehicle: saline); 0 of 6 (dose: 16.0 mg/kg/injection, schedule: Q01DX010 (ip), vehicle: saline); 6 of 6 (dose: 250.0 micrograms/kg/injection, schedule: Q01DX010 (ip), vehicle: saline); 4 of 6 (dose: 500.0 micrograms/kg/injection, schedule: Q01DX010 (ip), vehicle: saline).
`Cc1[o+]c(C)c2c(c1C)-c1ccccc1C2=O`: the T/C under setting [4] was 126 % of control. Further, the survivor count is, setting by setting: under setting [4], 6 of 6; (dose: 100.0 mg/kg/injection, schedule: Q04DX003 (ip), vehicle: saline with Tween-80) 6 of 6; (dose: 200.0 mg/kg/injection, schedule: Q04DX003 (ip), vehicle: saline with Tween-80) 6 of 6; (dose: 400.0 mg/kg/injection, schedule: Q04DX003 (ip), vehicle: saline with Tween-80) 2 of 6.
As to `C[N+](C)(Cc1ccccc1)CC(O)COc1ccccc1` (configuration not stated), the survivor count under setting [3] is 5 of 6.
Consider `CC1CN(c2ccc([N+](=O)[O-])cc2)C(C)CN1` (configuration not stated), for which the survivor count (dose: 200.0 mg/kg/injection, schedule: Q04DX003 (ip), vehicle: saline) is 2 of 6.
In the case of `CC(C(=O)c1cccs1)C(O)(C(F)(F)F)C(F)(F)F` (configuration not stated), for the setting “dose: 400.0 mg/kg/injection, schedule: Q04DX003 (ip), vehicle: Klucel (hydroxypropylcellulose) (HPC)”, the survivor count was 6 of 6.
Take `CC(C)(C)NCc1cc(C(C)(C)C)cc(-c2ccc(Cl)cc2)c1O`: the survivor count under setting [5] is recorded as 2 of 6.
On to `Cn1cc(/C=C\C(=O)O)c2nccnc21`, for which the survivor count (dose: 50.0 mg/kg/injection, schedule: Q01DX009 (ip), vehicle: water) is given as 5 of 6 and the survivor count (dose: 200.0 mg/kg/injection, schedule: Q01DX009 (ip), vehicle: water) is 5 of 6.
With `CN(C=C(C#N)C#N)c1ccccc1`, the survivor count is recorded as 5 of 6 under setting [1] and 0 of 6 under setting [5].
For `N#Cc1cn(C2OC(CO)C(O)C2O)c2nc(Cl)nc(N)c12` (configuration not stated), under “dose: 3.12 mg/kg/injection, schedule: Q04DX003 (ip), vehicle: saline”, the T/C was 140 % of control. For the same molecule, the survivor count under setting [6] is 6 of 6.
As to `N=C(N)SCCCCCCCCCCSC(=N)N`, the survivor count under setting [1] is listed as 0 of 6.
On to `NP(=O)(N1CC1)N1CC1`, for which, for the setting “dose: 12.5 mg/kg/injection, schedule: Q04DX003 (ip), vehicle: saline”, the T/C is 135 % of control.
`COc1ccc(-c2csc(-c3ccccc3)n2)cc1N=Cc1ccc(N(CCCl)CCCl)c(OC)c1`: the T/C was 145 % of control (dose: 9.0 mg/kg/injection, schedule: Q04DX003 (ip), vehicle: saline with Tween-80) and 130 % of control under setting [7]. Further, the survivor count is on record as 5 of 6 under setting [7], 5 of 6 under setting [5] and 0 of 6 under setting [2].
In the case of `C1CC[N-]CC1.O=C(CC(=O)C(F)(F)F)C(F)(F)F.O=C(CC(=O)C(F)(F)F)C(F)(F)F.[Cu+]`, the survivor count is given as 0 of 6 (dose: 100.0 mg/kg/injection, schedule: Q01DX001 (ip), vehicle: saline with Tween-80); 0 of 6 (dose: 200.0 mg/kg/injection, schedule: Q01DX001 (ip), vehicle: saline with Tween-80); 0 of 6 (dose: 400.0 mg/kg/injection, schedule: Q01DX001 (ip), vehicle: saline with Tween-80).
With `O.O.O=C(CC(=O)C(F)(F)F)C(F)(F)F.O=C(CC(=O)C(F)(F)F)C(F)(F)F.[Ni]`, where the note is “dose: 100.0 mg/kg/injection, schedule: Q01DX001 (ip), vehicle: Klucel (hydroxypropylcellulose) (HPC)”, the T/C is 131 % of control [5 of 6 alive]. For the same molecule, the survivor count (dose: 400.0 mg/kg/injection, schedule: Q01DX001 (ip), vehicle: Klucel (hydroxypropylcellulose) (HPC)) is reported as 1 of 6.
`CCC1=C(C[C@H]2NCCc3cc(OC)c(OC)cc32)C[C@H]2c3cc(OC)c(OC)cc3CCN2C1`: the T/C is, setting by setting: (dose: 8.0 mg/kg/injection, schedule: Q04DX003 (ip), vehicle: saline) 130 % of control; (dose: 10.0 mg/kg/injection, schedule: Q04DX003 (ip), vehicle: saline with Tween-80) 131 % of control; (dose: 10.8 mg/kg/injection, schedule: Q04DX003 (ip), vehicle: saline) 126 % of control; (dose: 18.0 mg/kg/injection, schedule: Q04DX003 (ip), vehicle: saline) 141 % of control; (dose: 22.0 mg/kg/injection, schedule: Q04DX003 (ip), vehicle: saline) 127 % of control; (dose: 30.0 mg/kg/injection, schedule: Q04DX003 (ip), vehicle: saline) 147 % of control [7 of 8 alive]. Under setting [6], the T/C was 145 % of control [5 of 6 alive]. Besides, the survivor count (dose: 22.0 mg/kg/injection, schedule: Q01DX009 (ip), vehicle: Klucel (hydroxypropylcellulose) (HPC)) is listed as 4 of 6; the survivor count (dose: 33.0 mg/kg/injection, schedule: Q01DX009 (ip), vehicle: Klucel (hydroxypropylcellulose) (HPC)) is reported as 0 of 6; the survivor count (dose: 50.0 mg/kg/injection, schedule: Q01DX009 (ip), vehicle: Klucel (hydroxypropylcellulose) (HPC)) is recorded as 0 of 6; the survivor count (dose: 50.0 mg/kg/injection, schedule: Q04DX003 (ip), vehicle: Klucel (hydroxypropylcellulose) (HPC)) is 6 of 6; the survivor count under setting [6] is on record as 6 of 8; the survivor count (dose: 64.0 mg/kg/injection, schedule: Q04DX003 (ip), vehicle: saline) is given as 5 of 8. For the same molecule, the survivor count was 0 of 6 (dose: 75.0 mg/kg/injection, schedule: Q01DX009 (ip), vehicle: Klucel (hydroxypropylcellulose) (HPC)); 1 of 6 (dose: 75.0 mg/kg/injection, schedule: Q04DX003 (ip), vehicle: Klucel (hydroxypropylcellulose) (HPC)); 3 of 6 (dose: 75.0 mg/kg/injection, schedule: Q04DX003 (ip), vehicle: saline with Tween-80).
Regarding `COC(=O)c1cc(=O)nc(N/N=C/c2ccc3c(c2)OCO3)s1`, the survivor count (dose: 100.0 mg/kg/injection, schedule: Q01DX005 (ip), vehicle: saline with Tween-80) is on record as 5 of 5.
As to `O=Cc1ccc(/C=C2\NC(=O)NC2=O)cc1`, the T/C (dose: 400.0 mg/kg/injection, schedule: Q04DX003 (ip), vehicle: water) is 130 % of control.
Turning to `Cc1cc(N(CCOS(C)(=O)=O)CCOS(C)(=O)=O)ccc1C=Nc1ccc(-c2csc(Cc3ccccc3)n2)cc1`, for the setting “dose: 12.5 mg/kg/injection, schedule: Q01DX009 (ip), vehicle: Klucel (hydroxypropylcellulose) (HPC)”, the T/C was 128 % of control.
As to `Nc1nc(-c2c[nH]c(=O)[nH]c2=O)cs1`, under setting [5], the survivor count was 3 of 6.

These data come from PubChem BioAssay AID328 (DTP/NCI, 2004).
